Values after ≈ are worked out from the molar mass of the structure shown.
Legend:
[1] = Saturation solubility in 50% FBS/PBS; assay type: physicochemical
[2] = Water solubility measured in the current study; assay type: physicochemical

- solubility at 24 h [1]: 41.2 ± 3.9 µg/mL (≈ 48.2 µM)
- solubility at 24 h [2]: 3.3 ± 0.3 µg/mL (≈ 3.86 µM)
SMILES: CC(=O)O[C@H]1C(=O)[C@@]2(C)[C@H]([C@H](OC(=O)c3ccccc3)[C@]3(O)C[C@H](OC(=O)[C@H](O)[C@@H](NC(=O)c4ccccc4)c4ccccc4)C(C)=C1C3(C)C)[C@]1(OC(C)=O)CO[C@@H]1C[C@@H]2O [PTX, paclitaxel]

From publication PMC7096246 (Journal of pharmaceutical sciences, 2020)
